From patent US12195506B2, “Immunotherapy with A*01 restricted peptides and combination of peptides against cancers and related methods” (Immatics Biotechnologies GmbH, priority 2018, dated 2025)

What was measured:
[1] = tested on: HLA molecules of primary tumors and normal tissue samples; assay: Identification and relative quantitation of HLA ligands by LC-MS (peptide presentation on tumor versus normal tissue); design: species or system human; details: cancer entities on which the peptide was found presented (HLA ligands, LC-MS); abbreviations as in title of Table 8
source genes (mRNA) = assay: Expression profiling of genes encoding the peptides (RNAseq, tumor versus normal tissues); design: species or system human; details: source gene of the peptide; for Gene Expression in tumor samples: over-expressed (+): value = tumor type in which the gene is over-expressed compared to a panel of normal tissues; for Gene Expression in tumor samples: very highly over-expressed (+++): value = tumor type in which the gene is very highly over-expressed compared to a panel of normal tissues; for Gene Expression in tumor samples: Highly over-expressed (++): value = tumor type in which the gene is highly over-expressed compared to a panel of normal tissues

Substance | Peptide Presentation on cancer entities [1] | Gene Expression in tumor samples: over-expressed (+) (source genes (mRNA)) | Gene Expression in tumor samples: very highly over-expressed (+++) (source genes (mRNA)) | Gene Expression in tumor samples: Highly over-expressed (++) (source genes (mRNA))
95: peptide found in MMP12 (gene looked up) (SSDPKAVMF; listed as Homo sapiens) [compound 95] | CRC | HCC, RCC | OSCAR, SCLC, UBC | –
97: peptide found in CYP4Z1 (gene looked up) (FPAPPAHWFY; listed as Homo sapiens) [compound 97] | BRCA | – | BRCA | –
100: peptide found in CYP4Z1 (gene looked up) (TTSSAISWILY; listed as Homo sapiens) [compound 100] | BRCA | – | – | BRCA
135: peptide found in F5 (gene looked up) (TFDKQIVLL; listed as Homo sapiens) [compound 135] | NSCLCother | CCC | – | HCC
137: peptide found in NAT1 (gene looked up) (EAYLERIGY; listed as Homo sapiens) [compound 137] | BRCA | – | – | BRCA
138: peptide found in PTPRZ1 (gene looked up) (IPVHDSVGVTY; listed as Homo sapiens) [compound 138] | MEL | – | – | GBM
139: peptide found in PTPRZ1 (gene looked up) (PVHDSVGVTY; listed as Homo sapiens) [compound 139] | GC, SCLC, UEC | – | – | GBM
140: peptide found in PTPRZ1 (gene looked up) (SQHIFTVSY; listed as Homo sapiens) [compound 140] | GBM, NSCLCsquam | – | – | GBM
141: peptide found in F5 (gene looked up) (DAVAPGREY; listed as Homo sapiens) [compound 141] | GBC | CCC | – | HCC
142: peptide found in PTPRZ1 (gene looked up) (IEKFAVLY; listed as Homo sapiens) [compound 142] | HNSCC | – | – | GBM
143: peptide found in PGR (gene looked up) (HVSGQMLYF; listed as Homo sapiens) [compound 143] | BRCA | BRCA | – | UEC
146: peptide found in MMP16 (gene looked up) (LCATVCGTEQY; listed as Homo sapiens) [compound 146] | HNSCC | BRCA | – | GBM, MEL
157: peptide found in IGF1R (gene looked up) (GLIEVVTGY; listed as Homo sapiens) [compound 157] | MEL, OC | – | – | BRCA
164: peptide found in ADAMTS12 (gene looked up) (KLAGTVFQY; listed as Homo sapiens) [compound 164] | NSCLCsquam | – | – | CCC, GBC
167: peptide found in F5 (gene looked up) (RAVQPGETY; listed as Homo sapiens) [compound 167] | NSCLCother, NSCLCsquam | CCC | – | HCC
168: peptide found in F5 (gene looked up) (VQPGETYTY; listed as Homo sapiens) [compound 168] | GBC | CCC | – | HCC
170: peptide found in EGFR (gene looked up) (VQIAKGMNY; listed as Homo sapiens) [compound 170] | NSCLCsquam | HNSCC | – | GBM
171: peptide found in EGFR (gene looked up) (ITDFGLAKL; listed as Homo sapiens) [compound 171] | NSCLCadeno | HNSCC | – | GBM
178: peptide found in ROS1 (gene looked up) (TQRTSFQFY; listed as Homo sapiens) [compound 178] | NSCLCadeno, NSCLCsquam, OC | NSCLCother, NSCLCsquam | – | NSCLCadeno
179: peptide found in FERMT1 (gene looked up) (SSTDFTFASW; listed as Homo sapiens) [compound 179] | HNSCC, OC, OSCAR | – | – | CRC
181: peptide found in HTR7 (gene looked up) (SVTDLIGGKW; listed as Homo sapiens) [compound 181] | OSCAR | AML, NSCLCsquam, OSCAR | – | HNSCC, UBC
182: peptide found in ADAMTS12 (gene looked up) (TQPELSSRY; listed as Homo sapiens) [compound 182] | NSCLCadeno | – | – | CCC, GBC
184: peptide found in EGFR (gene looked up) (KTIQEVAGY; listed as Homo sapiens) [compound 184] | GBM, HNSCC | – | – | GBM
186: peptide found in CTLA4 (gene looked up) (AVSSGLFFY; listed as Homo sapiens) [compound 186] | BRCA | NHL | – | CLL
187: peptide found in PTPRZ1 (gene looked up) (TQKSVQVLAY; listed as Homo sapiens) [compound 187] | GBM | – | – | GBM
192: peptide found in SLC7A11 (gene looked up) (LAFYYGMY; listed as Homo sapiens) [compound 192] | GC, MEL, NHL, NSCLCsquam, OC, PRCA, RCC, UEC | GBM, HNSCC, NSCLCadeno, OSCAR | – | NSCLCsquam
194: peptide found in ROS1 (gene looked up) (CYTADNEMGY; listed as Homo sapiens) [compound 194] | HCC | NSCLCother, NSCLCsquam | – | NSCLCadeno

For some assays here: Expression values are those of the mRNA of the gene that encodes the peptide; a gene is named only where it was looked up.
